Results as given in publication PMC3717027.
These are yes or no findings as the source states them, for the method shown. In cells and extracts the contact can be indirect. Some results given as binding are weak or reduced against the parent protein; the word gives no strength. Sequences can lack the tags named with a protein.

Molecular target: T1, Ala10-humanPABPN1-FLAG (human) (UniProt Q86U42)
T1 sequence: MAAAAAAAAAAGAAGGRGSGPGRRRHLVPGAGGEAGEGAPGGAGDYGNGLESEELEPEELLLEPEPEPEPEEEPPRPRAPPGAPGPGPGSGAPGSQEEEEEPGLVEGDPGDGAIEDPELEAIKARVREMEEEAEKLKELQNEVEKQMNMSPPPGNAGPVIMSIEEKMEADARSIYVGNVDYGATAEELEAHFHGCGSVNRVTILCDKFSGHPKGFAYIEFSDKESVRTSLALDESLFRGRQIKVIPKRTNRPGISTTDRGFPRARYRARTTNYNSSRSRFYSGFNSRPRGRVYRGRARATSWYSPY
Assay: co-IP; soluble protein extracts of 4-day fused myotube cultures (150 mM NaCl, 50 mM Tris pH7.5, 0.1% Tween, protease inhibitors); FLAG-tagged PABPN1 bound with rabbit anti-FLAG and precipitated with Protein-A Sepharose; washes with decreasing NaCl (150-0 mM); blot with rabbit anti-Pcolce; parental IM2 extract as control

- binding: binds
B1: procollagen C-proteinase enhancer 1 (Pcolce), full-length 48 kDa protein (protein, UniProt Q61398 25-468)
chain: QTPNYTRPVFLCGGDVTGESGYVASEGFPNLYPPNKKCIWTITVPEGQTVSLSFRVFDMELHPSCRYDALEVFAGSGTSGQRLGRFCGTFRPAPVVAPGNQVTLRMTTDEGTGGRGFLLWYSGRATSGTEHQFCGGRMEKAQGTLTTPNWPESDYPPGISCSWHIIAPSNQVIMLTFGKFDVEPDTYCRYDSVSVFNGAVSDDSKRLGKFCGDKAPSPISSEGNELLVQFVSDLSVTADGFSASYRTLPRDAVEKESALSPGEDVQRGPQSRSDPKTGTGPKVKPPTKPKSQPAETPEASPATQATPVAPAAPSITCPKQYKRSGTLQSNFCSSSLVVTGTVKTMVRGPGEGLTVTVSLLGVYKTGGLDLPSPPSGTSLKLYVPCRQMPPMKKGASYLLMGQVEENRGPILPPESFVVLYRSNQDQILNNLSKRKCPSQPRTAA
